# According to publication PMC12079475, “Identification, validation, and characterization of approved and investigational drugs interfering with the SARS‐CoV‐2 endoribonuclease Nsp15” (Protein Science : A Publication of the Protein Society, 2025):
# Where two headings read alike, the source gives them in different places.
# Experiments:
# SARS‐CoV‐2 Nsp15 [1] = target: T1, SARS‐CoV‐2 Nsp15 (Severe acute respiratory syndrome coronavirus 2, UniProt P0DTD1); assay: biochemical
# SARS‐CoV‐2 Nsp15 [2] = target: T1, SARS‐CoV‐2 Nsp15; assay: biochemical; remark: listed apart in the source
structure (smiles),measurement,setting,value
COc1cc(OC)cc(N(CCNC(C)C)c2ccc3ncc(-c4cnn(C)c4)nc3c2)c1 [Erdafitinib],IC50,SARS‐CoV‐2 Nsp15 [1]; IC50 + DTT (μM) (CI in μM),3.2 µM
same,IC50,SARS‐CoV‐2 Nsp15 [1]; IC50 +DTT (µM),3.15 µM
same,inhibition at 10 µM,"SARS‐CoV‐2 Nsp15 [1]; hit confirmation, 10 µM, DTT buffer, read-out: HC inhibition % +DTT 10 µM",66.6%
same,inhibition at 10 µM,"SARS‐CoV‐2 Nsp15 [1]; primary screen, 10 µM (Table S1), read-out: PS Inhibition % 10 µM",57.2%
same,inhibition at 10 µM,"SARS‐CoV‐2 Nsp15 [1]; primary screen, 10 μM compound, 1 mM DTT buffer, normalized to 50 μM Congo red (100%) and DMSO (0%), read-out: PS inhibition % 10 μM (single point measurement)",57.2%
same,inhibition at 10 µM,"SARS‐CoV‐2 Nsp15 [2]; 10 µM, L-cysteine buffer, read-out: Inhibition % +L-Cys 10 µM",68.2%
same,IC50,SARS‐CoV‐2 Nsp15 [2]; IC50 + L‐Cys (μM) (CI in μM),4.3 µM
same,IC50,SARS‐CoV‐2 Nsp15 [2]; IC50 +L-Cys (µM),4.28 µM
